Experimental data published in PubChem BioAssay AID504467 (National Center for Advancing Translational Sciences (NCATS), 2011).
About 7,700 (2.3%) of roughly 330,000 compounds were called active. This list was built around the results that the source calls inconclusive (neither active nor inactive); the mix of calls is not that of the screen. Calls follow the shape of the dose curve; as a rule, active = well fitted inhibition curve with a large enough effect; inconclusive = small, poorly fitted or top-dose-only effect, or effect the other way; inactive = flat fitted curve, though single readings scatter. Potencies beside an inconclusive call are fits to weak or partial responses and may not hold up.

Test: qHTS screen for small molecules that inhibit ELG1-dependent DNA repair in human embryonic kidney (HEK293T) cells expressing luciferase-tagged ELG1; also: nearly all actives have a fitted effect of over 55% in size
Settings: HEK293T ELG1-luciferase reporter, luminescence, 16 h, DNA damage induced by 5-fluorouridine; series mostly up to 46.1 µM
Summary of the method: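 HEK293T cells expressing luciferase-tagged ELG1 (2,000/well) received 5-Fluorouridine plus compound or DMSO for 16 hr at 37 °C. Luciferase was read by ONE-Glo luminescence after 30 min at room temperature.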
Potency is read from the fitted curve at half-maximal effect.

SMILES	Potency
Cc1cc(NCc2ccccc2)n2ncc(-c3ccccc3)c2n1	inconclusive: 4.11 µM [activator, full curve]
CCOCCCNC(=O)CCn1nc(-c2ccc(Cl)cc2)ccc1=O	inconclusive: 0.0046 µM [inhibitor, full curve, poor fit]
Cc1cccc(OCC(=O)N/N=C/c2cc([N+](=O)[O-])ccc2N2CCOCC2)c1	inconclusive: 16.4 µM [inhibitor, partial curve]
COc1ccc(C(=O)Nc2nnc(SCC(=O)Nc3ccc(NC(C)=O)cc3)s2)c(OC)c1	inconclusive: 0.73 µM [activator, partial curve, poor fit]
CCSC1=NC(C)(C)C=C(/C=C/c2ccc(Cl)cc2Cl)N1	inactive
CC(Sc1nnc(-c2ccc(OC(F)F)cc2)n1N)C(=O)NCC1CCCO1 (stereo not given)	inactive
CC(C)(C)OC(=O)N1CCCN(C(=O)Nc2ccc(OC(F)(F)F)cc2)CC1	inconclusive: 16.4 µM [inhibitor, single point]
Cc1cc(N2CCCCCC2)n2nc(C)c(-c3ccccc3)c2n1	inconclusive: 29.1 µM [inhibitor, single point]
Cc1nc(C)c(-c2ccc(SCC(=O)Nc3ccc(F)cc3F)nn2)s1	active: 18.3 µM
O=C(O)c1ccc(Nc2nc3c(s2)CCCC3)cc1	inconclusive: 0.259 µM [activator, partial curve]
C=CCn1c(SCC(=O)NCCCC(=O)OCC)nc2scc(-c3ccco3)c2c1=O	inconclusive: 29.1 µM [inhibitor, single point]
CCOC(=O)/C=C1\SCC(=O)N1CC(=O)NCc1ccc(OC)c(OC)c1	inactive
COc1cc(-c2cc(C(=O)NCCc3ccc(S(N)(=O)=O)cc3)c3ccccc3n2)cc(OC)c1OC	active: 4.11 µM
CN(C)c1ccc(/C=N/NC(=O)c2ccc3nc[nH]c3c2)cc1	inconclusive: 13 µM [activator, partial curve]
Cc1ccc(NC(=O)NCCCN2CCCC2=O)cc1Cl	inconclusive: 16.4 µM [activator, partial curve]
CC(C)CN1CCC(=O)N(CCOc2ccccc2)CC1	inconclusive: 25.9 µM [activator, single point]
CCc1ccc(Nc2ncccc2C#N)cc1	inconclusive: 29.1 µM [activator, single point]
O=C(CSc1ccccc1)NCC1(N2CCCCC2)CCCCC1	inactive
O=C(NC(=S)Nc1cccnc1)c1ccccc1	inconclusive: 23.1 µM [activator, partial curve]
Cc1ccc(/C=N/Nc2cccc(C(=O)O)c2)s1	inconclusive: 0.13 µM [activator, full curve]
Cc1cccc(C(=O)Nc2cccc(-c3ccc4nncn4n3)c2)c1	inconclusive: 18.3 µM [inhibitor, single point]
C/C(=C1/SC(N2CC(C)OC(C)C2)=NC1=O)c1ccccc1 (stereo not given)	inconclusive: 18.4 µM [inhibitor, single point]
COc1cc(OC)cc(C(=O)NCC(=O)Nc2ccc(OC)c(Cl)c2)c1	inactive
COc1ccc(NC(=O)c2ccc3c(c2)OCO3)cc1Cl	inconclusive: 2.31 µM [activator, full curve]

A draw from above in order of length of the SMILES, largest number first.
SMILES	Potency
COc1cc(-c2cc(C(=O)NCCc3ccc(S(N)(=O)=O)cc3)c3ccccc3n2)cc(OC)c1OC	active: 4.11 µM
COc1ccc(C(=O)Nc2nnc(SCC(=O)Nc3ccc(NC(C)=O)cc3)s2)c(OC)c1	inconclusive: 0.73 µM [activator, partial curve, poor fit]
Cc1cccc(OCC(=O)N/N=C/c2cc([N+](=O)[O-])ccc2N2CCOCC2)c1	inconclusive: 16.4 µM [inhibitor, partial curve]
C=CCn1c(SCC(=O)NCCCC(=O)OCC)nc2scc(-c3ccco3)c2c1=O	inconclusive: 29.1 µM [inhibitor, single point]
CCOC(=O)/C=C1\SCC(=O)N1CC(=O)NCc1ccc(OC)c(OC)c1	inactive
CC(Sc1nnc(-c2ccc(OC(F)F)cc2)n1N)C(=O)NCC1CCCO1 (stereo not given)	inactive
COc1cc(OC)cc(C(=O)NCC(=O)Nc2ccc(OC)c(Cl)c2)c1	inactive
Cc1nc(C)c(-c2ccc(SCC(=O)Nc3ccc(F)cc3F)nn2)s1	active: 18.3 µM
CN(C)c1ccc(/C=N/NC(=O)c2ccc3nc[nH]c3c2)cc1	inconclusive: 13 µM [activator, partial curve]
C/C(=C1/SC(N2CC(C)OC(C)C2)=NC1=O)c1ccccc1 (stereo not given)	inconclusive: 18.4 µM [inhibitor, single point]
CCSC1=NC(C)(C)C=C(/C=C/c2ccc(Cl)cc2Cl)N1	inactive
Cc1cc(N2CCCCCC2)n2nc(C)c(-c3ccccc3)c2n1	inconclusive: 29.1 µM [inhibitor, single point]
Cc1cc(NCc2ccccc2)n2ncc(-c3ccccc3)c2n1	inconclusive: 4.11 µM [activator, full curve]
COc1ccc(NC(=O)c2ccc3c(c2)OCO3)cc1Cl	inconclusive: 2.31 µM [activator, full curve]
Cc1ccc(NC(=O)NCCCN2CCCC2=O)cc1Cl	inconclusive: 16.4 µM [activator, partial curve]
O=C(NC(=S)Nc1cccnc1)c1ccccc1	inconclusive: 23.1 µM [activator, partial curve]
CCc1ccc(Nc2ncccc2C#N)cc1	inconclusive: 29.1 µM [activator, single point]

Remaining list, next part

SMILES	Potency
Cc1ccc2cc(C=O)c(N3CCOCC3)nc2c1C	inactive
CCN(CC(=O)Nc1c(F)cccc1F)C(=O)/C=C/c1ccc2c(c1)OCO2	inconclusive: 18.3 µM [activator, single point]
COc1cc2c(cc1NC(=O)CSc1nc3ccccc3[nH]1)oc1ccccc12	inconclusive: 13 µM [inhibitor, partial curve, poor fit]
CN1CCN(C(CNS(=O)(=O)c2ccc(F)cc2)c2cccnc2)CC1 (stereo not given)	inconclusive: 0.651 µM [activator, partial curve]
O=C(CC(Nc1ccc(Cl)cc1)C(=O)O)c1ccccc1 (stereo not given)	inconclusive: 4.11 µM [activator, partial curve]
CCOc1cc(NS(=O)(=O)c2ccc(OC)cc2)c(OCC)cc1NC(=O)c1ccco1	inconclusive: 23.1 µM [inhibitor, partial curve, poor fit]
O=C(/C=C/c1ccccc1)NCCc1ccccc1	inconclusive: 20.6 µM [activator, partial curve]
COc1ccc2c(C(=O)NCc3ccc4c(c3)OCO4)c(-c3ccc(S(C)(=O)=O)cc3)sc2c1	inconclusive: 3.26 µM [inhibitor, single point]
O=C1OC(NC(=O)c2ccccc2)C(n2cc(CO)nn2)=C1Cl (stereo not given)	inactive
CCOC(=O)C1(CCOc2ccccc2)CCN(C(=O)c2ccc(-n3cccn3)cc2)CC1	inconclusive: 18.3 µM [inhibitor, single point]
CCc1ccc2nc(SCC(=O)Nc3nnc(C)s3)c(C)cc2c1	inactive
N#Cc1ccc(/C=C/C(=O)c2ccccc2)cc1	inconclusive: 23.1 µM [activator, partial curve]
CN(C(=O)Nc1ccc(S(=O)(=O)N(C)C)cc1)C1CCCCC1	inconclusive: 29.1 µM [activator, single point]
Cc1cc(C)c(NC(=O)COC(=O)c2c(C)noc2C)c(Cl)c1	inactive
O=C(CN1CCN(c2ccccc2O)CC1)Nc1ccc2c(c1)OCCCO2	inactive
Cc1nc(SCC(=O)NCc2ccco2)c2c(=O)n(C)c(=O)n(CC(C)C)c2n1	inconclusive: 20.6 µM [inhibitor, single point]
O=C(CSCC(=O)OCC(=O)c1ccc(Br)cc1)Nc1ccc(Br)cc1	inactive
CC(C)OCCCNC1=C(Cl)C(=O)c2ccccc2C1=O	inactive
Cc1cccc(NC(=S)NNC(=O)c2sccc2C)c1	inconclusive: 20.6 µM [activator, partial curve]
N#Cc1ccccc1S(=O)(=O)N1CCNS(=O)(=O)c2ccccc21	inactive
CCOC(=O)c1cc2c(=O)n3ccccc3nc2n(Cc2ccco2)c1=NC(=O)c1cccc(OC)c1	inconclusive: 29.1 µM [inhibitor, single point]
O=[N+]([O-])c1cc(S(=O)(=O)N2CCCCCC2)ccc1Cl	inconclusive: 29.1 µM [activator, single point]
CCN1c2ccccc2-c2nc3ccccc3n2C1c1cccs1 (stereo not given)	inactive
Cc1csc(N2CCN(c3cc4nc(-c5ccncc5)[nH]c4cc3Cl)CC2)n1	inconclusive: 29.1 µM [inhibitor, single point]

SMILES	Potency
CCOc1cc([N+](=O)[O-])cc2c1C(=O)Nc1ccccc1O2	active: 7.3 µM
CC(C)c1ccc(NC(=O)COc2nnc(-c3cccs3)c(-c3cccs3)n2)cc1	inconclusive: 25.9 µM [inhibitor, single point]
C=CCN1C(=O)CC(C(=O)NC)SC1=Nc1ccc(C(=O)OCC)cc1 (stereo not given)	inconclusive: 16.4 µM [activator, single point]
Cc1cccc(C(=O)NCCc2ccccc2)c1	inconclusive: 9.2 µM [activator, partial curve]
CCCSc1nc2ccsc2c(=O)n1CC	inactive
COc1ccc(CN(C(=O)CSc2nnc(-c3ccc(OC)c(OC)c3)o2)c2ccc(F)cc2)cc1	active: 16.4 µM
COc1ccc(OC)c(-n2c(=S)[nH]c3cc(C(=O)N4CCN(c5ccccc5)CC4)ccc3c2=O)c1	inconclusive: 23.1 µM [inhibitor, partial curve]
COc1cccc(CC(=O)NNC(=O)CN(C)S(=O)(=O)c2ccc(C)cc2)c1	inconclusive: 11.6 µM [activator, partial curve, poor fit]
COc1ccc(-c2noc(-c3ccccc3C(=O)NCc3ccco3)n2)cc1	inconclusive: 25.9 µM [inhibitor, single point]
CCOc1cc(CN2CCc3c([nH]c4ccccc34)C2)ccc1OC	inactive
Cc1noc(C)c1C(=O)Nc1ccc2ccccc2c1	inconclusive: 18.3 µM [activator, single point]
CCOc1ccc(S(=O)(=O)Nc2ccc(C(=O)N(C)CC(=O)Nc3ccc(OC)cc3)cc2)cc1	inactive
COc1ccc(CCn2c(NN=C(C)C)nc3c2c(=O)[nH]c(=O)n3C)cc1	inconclusive: 23.1 µM [inhibitor, single point]
CCn1cc([N+](=O)[O-])c(C(=O)Nc2ccc3c(c2)OCCO3)n1	inconclusive: 14.6 µM [activator, partial curve]
O=C(Nc1cccc(C(F)(F)F)c1)Nc1ccon1	inconclusive: 14.6 µM [inhibitor, partial curve, poor fit]
Cc1ccc(S(=O)(=O)N2C[C@@H]3[C@H]4CC[C@H](C4)[C@@H]3[C@@H](C)[C@@H]2C2CCCCC2=O)cc1 (stereo not given in full)	inactive
CN(C)c1ccc(N2CN=C3SCC(=O)N3C2)cc1	inconclusive: 2.31 µM [activator, partial curve]
CC(=O)N1N=C(c2ccc(C)cc2)OC1c1ccc(C(C)C)cc1 (stereo not given)	inconclusive: 11.2 µM [activator, partial curve]
CC(C)n1nnnc1SCC(=O)Nc1cccc(F)c1	inconclusive: 23.1 µM [activator, single point]
COc1cc(C(=O)O[C@H]2C/C(C)=C/CC[C@@]3(C)O[C@@H]3[C@H](O)[C@@H]2C(C)C)cc(OC)c1OC	inconclusive: 20.6 µM [inhibitor, single point]
OC(CNC1Cc2ccccc2C1)c1ccccc1 (stereo not given)	inactive
O=C(CCCl)Nc1nc2c(s1)CCc1ccccc1-2	inactive

A second format for some results above:

| SMILES | Potency |
| --- | --- |
| COc1ccc(CN(C(=O)CSc2nnc(-c3ccc(OC)c(OC)c3)o2)c2ccc(F)cc2)cc1 | active: 16.4 µM |
| COc1ccc(CCn2c(NN=C(C)C)nc3c2c(=O)[nH]c(=O)n3C)cc1 | inconclusive: 23.1 µM [inhibitor, single point] |
